These are yes or no findings as the source states them, for the method shown. In cells and extracts the contact can be indirect. Some results given as binding are weak or reduced against the parent protein; the word gives no strength.
Target: USP28 (human (endogenous in A431)) (UniProt Q96RU2)
Test: co-IP; endogenous proteins from A431 cells treated with DMF or 5 µM CPPD for 6 h; RIPA lysate (sonicated), 500 µg lysate, 1 µg antibody (phospho-ATM ser1981, phospho-ATR ser428 or USP28), Protein A/G magnetic beads; rabbit IgG as control; immunoblot

The chains behind the UniProt entries cited, without tags or fusion partners.
UniProt Q96RU2: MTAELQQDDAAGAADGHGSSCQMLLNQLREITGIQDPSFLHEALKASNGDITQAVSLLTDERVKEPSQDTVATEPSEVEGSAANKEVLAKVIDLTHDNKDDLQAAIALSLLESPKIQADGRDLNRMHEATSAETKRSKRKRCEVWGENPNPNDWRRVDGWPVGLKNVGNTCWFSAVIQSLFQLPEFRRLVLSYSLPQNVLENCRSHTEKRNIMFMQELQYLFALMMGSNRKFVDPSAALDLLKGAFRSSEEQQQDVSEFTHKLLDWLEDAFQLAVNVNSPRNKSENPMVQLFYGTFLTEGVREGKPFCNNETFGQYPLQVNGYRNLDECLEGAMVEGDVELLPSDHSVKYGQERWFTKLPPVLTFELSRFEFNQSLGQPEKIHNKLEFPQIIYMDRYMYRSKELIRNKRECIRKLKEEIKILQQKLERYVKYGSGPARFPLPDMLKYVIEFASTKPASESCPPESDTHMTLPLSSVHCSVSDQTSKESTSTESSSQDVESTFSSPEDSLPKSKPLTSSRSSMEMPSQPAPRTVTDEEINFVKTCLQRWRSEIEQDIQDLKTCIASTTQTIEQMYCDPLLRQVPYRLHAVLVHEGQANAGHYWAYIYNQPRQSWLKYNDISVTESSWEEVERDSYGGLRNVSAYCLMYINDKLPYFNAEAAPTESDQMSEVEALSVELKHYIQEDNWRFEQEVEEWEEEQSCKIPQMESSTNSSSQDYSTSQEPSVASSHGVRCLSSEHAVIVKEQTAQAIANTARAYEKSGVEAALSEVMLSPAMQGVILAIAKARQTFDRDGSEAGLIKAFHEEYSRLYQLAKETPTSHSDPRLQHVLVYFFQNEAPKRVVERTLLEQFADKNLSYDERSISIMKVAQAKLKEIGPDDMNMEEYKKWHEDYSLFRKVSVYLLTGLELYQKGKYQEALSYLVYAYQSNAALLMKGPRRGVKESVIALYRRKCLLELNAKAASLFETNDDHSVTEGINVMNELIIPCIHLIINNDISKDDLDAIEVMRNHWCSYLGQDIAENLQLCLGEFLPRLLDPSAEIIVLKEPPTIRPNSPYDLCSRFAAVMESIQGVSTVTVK
UniProt Q13535: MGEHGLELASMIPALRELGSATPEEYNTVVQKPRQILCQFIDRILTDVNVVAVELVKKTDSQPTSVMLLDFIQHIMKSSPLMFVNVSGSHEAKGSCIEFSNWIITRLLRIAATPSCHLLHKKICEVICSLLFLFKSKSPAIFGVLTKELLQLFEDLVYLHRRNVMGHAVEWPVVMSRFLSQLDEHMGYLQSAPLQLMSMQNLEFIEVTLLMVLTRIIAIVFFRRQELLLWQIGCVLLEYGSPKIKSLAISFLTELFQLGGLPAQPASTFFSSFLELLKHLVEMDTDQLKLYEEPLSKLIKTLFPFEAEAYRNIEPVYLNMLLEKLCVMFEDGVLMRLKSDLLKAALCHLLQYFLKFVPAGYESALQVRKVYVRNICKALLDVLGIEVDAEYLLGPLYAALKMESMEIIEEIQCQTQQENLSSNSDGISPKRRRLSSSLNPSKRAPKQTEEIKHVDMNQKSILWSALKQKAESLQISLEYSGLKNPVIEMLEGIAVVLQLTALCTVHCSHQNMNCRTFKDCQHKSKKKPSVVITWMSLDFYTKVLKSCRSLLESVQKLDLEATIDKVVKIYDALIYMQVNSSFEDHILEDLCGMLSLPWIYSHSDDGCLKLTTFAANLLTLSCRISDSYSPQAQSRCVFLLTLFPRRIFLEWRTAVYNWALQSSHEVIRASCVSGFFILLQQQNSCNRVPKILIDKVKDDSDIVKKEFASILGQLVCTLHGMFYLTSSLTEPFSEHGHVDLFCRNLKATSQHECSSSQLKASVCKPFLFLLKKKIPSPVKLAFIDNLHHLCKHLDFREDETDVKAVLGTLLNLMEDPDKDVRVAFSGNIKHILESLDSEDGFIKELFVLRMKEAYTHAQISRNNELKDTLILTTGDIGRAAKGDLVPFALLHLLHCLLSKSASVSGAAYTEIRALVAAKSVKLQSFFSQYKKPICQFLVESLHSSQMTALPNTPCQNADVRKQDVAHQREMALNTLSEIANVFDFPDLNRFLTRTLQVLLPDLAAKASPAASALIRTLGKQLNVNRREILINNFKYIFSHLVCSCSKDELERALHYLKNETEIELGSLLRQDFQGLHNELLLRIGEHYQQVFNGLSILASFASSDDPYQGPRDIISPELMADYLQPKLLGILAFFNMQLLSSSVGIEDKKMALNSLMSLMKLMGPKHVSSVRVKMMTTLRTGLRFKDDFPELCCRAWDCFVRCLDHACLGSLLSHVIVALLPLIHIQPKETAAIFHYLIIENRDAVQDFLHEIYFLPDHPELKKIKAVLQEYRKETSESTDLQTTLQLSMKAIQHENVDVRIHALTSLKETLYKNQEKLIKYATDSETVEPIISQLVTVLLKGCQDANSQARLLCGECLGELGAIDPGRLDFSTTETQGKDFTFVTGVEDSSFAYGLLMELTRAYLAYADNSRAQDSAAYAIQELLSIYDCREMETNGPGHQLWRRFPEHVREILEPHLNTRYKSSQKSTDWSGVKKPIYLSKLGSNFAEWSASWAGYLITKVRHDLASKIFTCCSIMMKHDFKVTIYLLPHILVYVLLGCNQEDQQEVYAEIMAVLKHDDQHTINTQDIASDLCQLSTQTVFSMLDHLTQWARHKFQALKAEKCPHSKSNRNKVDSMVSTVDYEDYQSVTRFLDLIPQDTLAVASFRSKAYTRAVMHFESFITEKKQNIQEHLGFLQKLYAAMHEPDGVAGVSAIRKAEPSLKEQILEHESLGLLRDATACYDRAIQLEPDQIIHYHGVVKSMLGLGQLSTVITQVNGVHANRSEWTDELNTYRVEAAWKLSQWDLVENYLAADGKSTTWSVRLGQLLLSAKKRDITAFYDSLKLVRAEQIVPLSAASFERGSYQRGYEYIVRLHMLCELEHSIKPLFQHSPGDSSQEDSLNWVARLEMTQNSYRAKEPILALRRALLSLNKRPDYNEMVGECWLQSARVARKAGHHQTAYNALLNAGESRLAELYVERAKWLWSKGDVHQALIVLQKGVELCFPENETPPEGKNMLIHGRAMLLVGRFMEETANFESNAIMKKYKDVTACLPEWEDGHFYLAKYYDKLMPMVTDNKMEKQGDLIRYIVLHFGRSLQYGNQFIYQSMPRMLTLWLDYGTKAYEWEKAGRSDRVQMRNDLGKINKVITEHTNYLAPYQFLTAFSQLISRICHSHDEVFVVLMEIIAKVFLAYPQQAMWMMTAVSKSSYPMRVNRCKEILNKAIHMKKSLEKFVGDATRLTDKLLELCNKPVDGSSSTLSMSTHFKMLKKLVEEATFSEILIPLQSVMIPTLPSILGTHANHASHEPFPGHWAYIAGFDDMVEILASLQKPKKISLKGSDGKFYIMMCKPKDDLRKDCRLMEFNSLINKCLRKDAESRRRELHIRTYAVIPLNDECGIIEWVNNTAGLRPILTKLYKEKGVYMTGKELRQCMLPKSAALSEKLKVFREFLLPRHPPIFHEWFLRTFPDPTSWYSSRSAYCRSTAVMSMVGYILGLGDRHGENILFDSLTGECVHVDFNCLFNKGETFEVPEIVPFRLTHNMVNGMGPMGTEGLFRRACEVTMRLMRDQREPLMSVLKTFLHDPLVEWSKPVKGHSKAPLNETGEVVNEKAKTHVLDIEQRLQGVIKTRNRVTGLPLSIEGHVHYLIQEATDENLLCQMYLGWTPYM

phospho-ATR (ser428) (from UniProt Q13535 1-2644) (enzyme)
binding: binds
